# According to the GenesisPotency data set:
# Protein sequences, listed by entry. Tags and fused reporters are not part of them.
# UniProt Q03181, whole entry L134P: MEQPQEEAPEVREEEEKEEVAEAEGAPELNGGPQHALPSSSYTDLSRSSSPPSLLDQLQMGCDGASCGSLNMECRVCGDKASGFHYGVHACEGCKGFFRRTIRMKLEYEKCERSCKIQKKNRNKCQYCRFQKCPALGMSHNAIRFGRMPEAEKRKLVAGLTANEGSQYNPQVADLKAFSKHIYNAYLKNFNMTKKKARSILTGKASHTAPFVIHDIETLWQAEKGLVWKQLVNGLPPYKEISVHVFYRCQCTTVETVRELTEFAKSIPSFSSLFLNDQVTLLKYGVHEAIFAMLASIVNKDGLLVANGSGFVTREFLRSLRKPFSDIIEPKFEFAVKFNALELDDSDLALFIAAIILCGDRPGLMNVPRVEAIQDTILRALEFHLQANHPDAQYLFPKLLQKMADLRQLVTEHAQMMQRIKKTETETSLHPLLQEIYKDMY
# Out of some 9,300 compounds screened, about 150 (1.6%) were called active. Not shown: some 24% with an inconclusive outcome. Calls come from the whole dose curve; as a rule, active = well fitted inhibition curve with a large enough effect in the signal ratio in the repeat runs (not every such curve was filed as active); inconclusive = weak or mixed curves, or effect the other way; inactive = no such curve, though single readings can be large or run the other way; the % refers to the signal ratio. Some of the results follow.
# Biological target: Peroxisome proliferator-activated receptor delta, Homo sapiens (UniProt Q03181)
# Test: qHTS assay to identify small molecule antagonists of the peroxisome proliferator-activated receptor delta (PPARd) signaling pathway (AID 743215)
row,SMILES,outcome
1,[I-].[Na+],inactive
